Construct, isoform or probe ends are uncertain for at least one entry.
Molecular target: XRCC4-WT (UniProt Q13426)
Test: SPR
Conditions: high concentrations only, kon and koff at least 10x slower than XLF; SPR: 20 mM HEPES pH 8, 75 mM KCl, 10% glycerol, 1 mM DTT, 1 mM EDTA (running buffer + 0.05% Tween 20); recombinant protein; label: 5'-biotin on S1 primer end; probe letters rebuilt from the primers and the genome

By UniProt entry, the sequences of proteins in these tests, tags left out. Where a name states a change or a piece, a line headed by the entry shows the natural chain unless it says otherwise.
UniProt Q13426: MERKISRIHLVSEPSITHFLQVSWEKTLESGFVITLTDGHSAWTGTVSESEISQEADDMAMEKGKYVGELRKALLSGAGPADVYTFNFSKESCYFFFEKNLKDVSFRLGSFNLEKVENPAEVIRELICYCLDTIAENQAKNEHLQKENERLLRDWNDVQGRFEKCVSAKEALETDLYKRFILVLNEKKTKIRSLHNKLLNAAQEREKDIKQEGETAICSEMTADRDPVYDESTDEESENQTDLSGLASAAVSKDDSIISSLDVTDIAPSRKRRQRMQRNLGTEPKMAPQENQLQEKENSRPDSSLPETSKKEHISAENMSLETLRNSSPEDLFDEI

## ACTTGACTCATGATTTCTTACCTATTAGTGGTTGAACAGCATCGGACTCAGATAGTAATCCACGCTCTTTTAAAATGTCAACAAGAGAATCTCTACCATGAACAAAATGTGACTCATATCTAAACCAGTCCTTGACGAACGTGCCAAGCATATTAAGCCACTTCTCCTCATCCAACGCGTCAGTTTTTGACAGAATCGTTAGTTGATGGCGAAAGGTCGCAAAGTAAGAGCTTCTCGAGCTGCGCAAGGATAGGTCGAATTTTCTCATTTTCCGCCAGCAGTCCACTTCGATTTAATTCGTAAACAAGCAGTAGTAATTCCTGCTTTATCAAGATAATTTTTCGACTCATCAGAAATATCCGAAAGTGTTAACTTCTGCGTCATGGAAGCGATAAAACTC (double strand) [400 bp SPR DNA]
  binding result: binds

Source: publication PMC5468090
